Results: patent US9128372B2, “Dendritic compounds, photoresist compositions and methods of making electronic devices” (Rohm and Haas Electronic Materials LLC, priority 2012, dated 2015)

Test: Acid diffusion length evaluation (acid source layer / acid detector layer bilayer, 193 nm open frame exposure, film thickness loss)
Assay type: physicochemical
Details: 193 nm exposure, calculated from film thickness loss by equations 1 and 2

Compound	PAG acid diffusion length (nm) (PEB = 120° C./60 sec)
TPS DiAdOH-DFES [Ex. 2 (TPS-DiAdOH-DFES)]	6.0 nm
O=C(OCCC(F)(F)C(F)(F)S(=O)(=O)O)C12CC3CC(CC(C3)C1)C2 [Comp. PAG1, reference compound]	55.9 nm
O=C(OCC(F)(F)S(=O)(=O)O)C12CC3CC(CC(C3)C1)C2 [Comp. PAG2, reference compound]	47.7 nm
